## Assay results

Data taken from PubChem BioAssay AID1159506, deposited by NCATS (2015).

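Luminescence from an EWS-FLI1 target-promoter (NR0B1) reporter, set against a CMV-promoter reporter, two days after silencing single genes in TC32 Ewing sarcoma cells.
Each siRNA was applied at 20 nM.
A z-score of the log NR0B1-over-CMV signal, less the median of siRNAs with the same seed; more negative means a stronger specific loss of the NR0B1 reporter.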

The strongest results of the screen are mostly left out here.
Sequences are the guide (antisense) strand, without overhang.

| # | Sequence | target gene | seed-corrected z-score |
|---|---|---|---|
| 1 | `AACGGUAUCCAUACUUGGG` | ZC3H12C | -0.4521 |
| 2 | `UGAAAGACCAACUGCAGUC` | DIABLO | -0.007928 |
| 3 | `UAACUAUCUCUGUCAAUUC` | SCAF11 | 0.08617 |
| 4 | `UCAGAAACCUCAUUGGUCG` | COQ10A | 0.5323 |
| 5 | `UCACCAAAACAAUAGGUGC` | OR1L8 | -0.0162 |
| 6 | `UUUUAAAAGAGGUCAUCUC` | IGF2-AS | 1.145 |
| 7 | `UGUAGCAUCACUGAACCUC` | TAX1BP1 | -0.1289 |
| 8 | `UACUUGUGAAACUUCAUCA` | RNMTL1 | -0.1058 |
| 9 | `UCUGCACAAACUGGUAGCC` | RHOT2 | -0.8229 |
| 10 | `UACGCUAUGCAGUUCUUUG` | KLRD1 | -0.612 |
| 11 | `UACUCGAUAAAACAAGAGG` | EI24 | -0.0762 |
| 12 | `UUUGGUAAAGAAUCGUGUC` | CHEK1 | 0.27 |
| 13 | `UAUAUCUUUCCUCCAUUGC` | HOOK1 | -0.2378 |
| 14 | `UCUGGACUUUUUGUGACUC` | WFDC12 | -0.315 |
| 15 | `UUCCAAACAAGGCUUCAGG` | RNF170 | -1.351 |
| 16 | `UCCAUAUUGAAAUAAUGUC` | EIF4E2 | 0.07796 |
| 17 | `UAAGUCUUGAGUCUGCACU` | EPOR | 0.6117 |
| 18 | `UUAAGAGCUCCAAUAAGCC` | CSE1L | 0.3152 |
| 19 | `UUUGUCUACAUGAUGUUGA` | AKAP1 | -0.4293 |
| 20 | `UGUCCAACCUGUGAAACCG` | RAB29 | -0.2473 |
| 21 | `AUUGGUUCCACAGCCGAGC` | CD320 | -0.195 |
| 22 | `UUCGAUACAGCCCUUGCUC` | ARHGAP26 | 0.46 |
| 23 | `UAUUCAUCUAUGACGGUGG` | CES3 | -1.461 |
| 24 | `UGAUGAUCAGGUUGAGGCG` | ENPP7 | 0.01941 |
| 25 | `UUUCUAGAAACGACUGGUC` | ADCK2 | -0.2697 |
| 26 | `UUGCUUCUCUAAGUUAUCC` | TRIM55 | -0.3062 |
| 27 | `UUGUCUACACUGUAUGUCU` | ALPPL2 | 0.5072 |
| 28 | `UCUUAGAUUAGGAGGUCUC` | SMIM14 | 0.03881 |
| 29 | `UAAGAAGCAAUGUCCUGAG` | TRAPPC10 | 0.1375 |
| 30 | `UCUGAGUCUAGCUUCUUCG` | ZNF346 | -0.297 |
| 31 | `UAGUUUGACGCGGAUUUUC` | RPS7P4 | 2.221 |
| 32 | `UAAGUUACUUAAGUCUUGG` | LZTFL1 | -0.8148 |
| 33 | `UUGCGCUUCAAGAUUUUCC` | CLSPN | -0.531 |
| 34 | `UGAUCCACCAUGGGAGUUG` | PYGO2 | -0.129 |
| 35 | `UGAACUAUGAUGGAAGGCC` | ZNF311 | 0.546 |
| 36 | `UGAUAUACAAAUGCUUCAC` | MICAL2 | -0.7198 |
| 37 | `AUACUGUCUAUGCACUGGG` | WDR76 | -1.257 |
| 38 | `UGAUCUUAGAGUUCUCUUC` | CAMK1G | -1.122 |
| 39 | `UUCGUCGAAAUCUCAGAAG` | GLRA3 | -0.7855 |
| 40 | `UACGGCAUGAGAUCAGUCG` | DNAAF5 | -0.763 |
| 41 | `UGUGAGGCCUGUUCCUUGG` | SNCB | 0.1295 |
| 42 | `UUACUGACUCCAAAAGCGG` | POLQ | 0.5896 |
| 43 | `UUAUCUAUAAAAUGCACAG` | ARRDC1-AS1 | 0.6967 |
| 44 | `UACAACAUCUGUUUGAGAG` | AGAP4 | 0.316 |
| 45 | `ACAGUAUGCAGUACCAUGG` | PARPBP | 0.585 |

Repeated from the top, 3 entries:

* AACGGUAUCCAUACUUGGG against ZC3H12C | seed-corrected z-score -0.4521
* UGAAAGACCAACUGCAGUC against DIABLO | seed-corrected z-score -0.007928
* UAACUAUCUCUGUCAAUUC against SCAF11 | seed-corrected z-score 0.08617